{"source": "patent US20130331690A1", "about": "“VASCULAR IMAGING AGENTS” (GE HEALTHCARE AS, priority 2010, published 2013)", "origin": "cited, not measured here", "conditions": "healthy subjects; cited from earlier work"}
{"smiles": "CC1(C)C(/C=C/C=C/C=C/C=C2\\N(CCCCS(=O)(=O)O)c3ccc4ccccc4c3C2(C)C)=[N+](CCCCS(=O)(=O)[O-])c2ccc3ccccc3c21", "note": "[ICG, indocyanine green]", "values": [{"measurement": "Blood clearance half-life in vivo", "result": "3.9 ± 0.9", "unit": "min"}]}
